No constants are given. Whether binding was seen depends on the method and setting. In cells and extracts the contact can be indirect. Some binding calls cover weakened binding; strength is not graded here.
Target: glucocorticoid receptor (GR), endogenous in HeLa cells (human (endogenous in HeLa)) (UniProt P04150)
Assay: co-IP; HeLa cells treated with 10^-6 M dexamethasone or vehicle for 3 hours; immunoprecipitation with anti-GR antibody or control IgG, Western blot for ZNF764; both proteins endogenous

Amino acid sequences for entries named in this document (tags omitted).
UniProt P04150: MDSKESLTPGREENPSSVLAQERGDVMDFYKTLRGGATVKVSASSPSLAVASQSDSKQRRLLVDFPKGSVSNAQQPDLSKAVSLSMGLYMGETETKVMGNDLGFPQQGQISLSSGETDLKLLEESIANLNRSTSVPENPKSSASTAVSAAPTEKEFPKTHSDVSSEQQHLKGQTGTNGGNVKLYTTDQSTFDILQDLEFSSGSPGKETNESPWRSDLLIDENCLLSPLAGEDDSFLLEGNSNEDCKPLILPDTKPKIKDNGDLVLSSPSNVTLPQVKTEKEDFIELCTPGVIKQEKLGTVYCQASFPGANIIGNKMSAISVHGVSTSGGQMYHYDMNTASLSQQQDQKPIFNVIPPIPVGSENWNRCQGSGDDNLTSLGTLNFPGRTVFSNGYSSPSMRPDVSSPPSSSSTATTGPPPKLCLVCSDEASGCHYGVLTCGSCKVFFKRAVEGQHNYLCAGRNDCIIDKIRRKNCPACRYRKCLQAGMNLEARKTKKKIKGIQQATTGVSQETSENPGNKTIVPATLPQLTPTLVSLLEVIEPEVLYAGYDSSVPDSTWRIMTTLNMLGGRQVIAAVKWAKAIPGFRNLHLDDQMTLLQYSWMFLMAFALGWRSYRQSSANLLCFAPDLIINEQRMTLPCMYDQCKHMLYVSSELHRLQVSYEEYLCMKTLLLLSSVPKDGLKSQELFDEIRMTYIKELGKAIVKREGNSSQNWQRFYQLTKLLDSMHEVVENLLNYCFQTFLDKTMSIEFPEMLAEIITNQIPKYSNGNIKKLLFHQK
UniProt Q96H86: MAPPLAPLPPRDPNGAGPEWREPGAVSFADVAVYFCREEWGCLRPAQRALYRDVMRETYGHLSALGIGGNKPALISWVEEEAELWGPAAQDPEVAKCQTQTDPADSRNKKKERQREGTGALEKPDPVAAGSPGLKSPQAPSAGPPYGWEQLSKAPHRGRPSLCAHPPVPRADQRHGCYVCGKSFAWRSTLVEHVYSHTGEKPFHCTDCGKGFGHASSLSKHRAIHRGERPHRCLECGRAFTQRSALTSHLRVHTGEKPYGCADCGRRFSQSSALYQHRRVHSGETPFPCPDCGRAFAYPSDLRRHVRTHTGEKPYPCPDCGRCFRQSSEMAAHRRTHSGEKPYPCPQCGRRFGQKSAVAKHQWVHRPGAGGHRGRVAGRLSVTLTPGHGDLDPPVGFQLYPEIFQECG

binding: binds
Substance: zinc finger protein ZNF764, endogenous in HeLa cells (from UniProt Q96H86 1-408)
